Our source for the binding values is PMC2585475.

Amino acid sequences for entries named in this document (tags omitted).
UniProt Q00610: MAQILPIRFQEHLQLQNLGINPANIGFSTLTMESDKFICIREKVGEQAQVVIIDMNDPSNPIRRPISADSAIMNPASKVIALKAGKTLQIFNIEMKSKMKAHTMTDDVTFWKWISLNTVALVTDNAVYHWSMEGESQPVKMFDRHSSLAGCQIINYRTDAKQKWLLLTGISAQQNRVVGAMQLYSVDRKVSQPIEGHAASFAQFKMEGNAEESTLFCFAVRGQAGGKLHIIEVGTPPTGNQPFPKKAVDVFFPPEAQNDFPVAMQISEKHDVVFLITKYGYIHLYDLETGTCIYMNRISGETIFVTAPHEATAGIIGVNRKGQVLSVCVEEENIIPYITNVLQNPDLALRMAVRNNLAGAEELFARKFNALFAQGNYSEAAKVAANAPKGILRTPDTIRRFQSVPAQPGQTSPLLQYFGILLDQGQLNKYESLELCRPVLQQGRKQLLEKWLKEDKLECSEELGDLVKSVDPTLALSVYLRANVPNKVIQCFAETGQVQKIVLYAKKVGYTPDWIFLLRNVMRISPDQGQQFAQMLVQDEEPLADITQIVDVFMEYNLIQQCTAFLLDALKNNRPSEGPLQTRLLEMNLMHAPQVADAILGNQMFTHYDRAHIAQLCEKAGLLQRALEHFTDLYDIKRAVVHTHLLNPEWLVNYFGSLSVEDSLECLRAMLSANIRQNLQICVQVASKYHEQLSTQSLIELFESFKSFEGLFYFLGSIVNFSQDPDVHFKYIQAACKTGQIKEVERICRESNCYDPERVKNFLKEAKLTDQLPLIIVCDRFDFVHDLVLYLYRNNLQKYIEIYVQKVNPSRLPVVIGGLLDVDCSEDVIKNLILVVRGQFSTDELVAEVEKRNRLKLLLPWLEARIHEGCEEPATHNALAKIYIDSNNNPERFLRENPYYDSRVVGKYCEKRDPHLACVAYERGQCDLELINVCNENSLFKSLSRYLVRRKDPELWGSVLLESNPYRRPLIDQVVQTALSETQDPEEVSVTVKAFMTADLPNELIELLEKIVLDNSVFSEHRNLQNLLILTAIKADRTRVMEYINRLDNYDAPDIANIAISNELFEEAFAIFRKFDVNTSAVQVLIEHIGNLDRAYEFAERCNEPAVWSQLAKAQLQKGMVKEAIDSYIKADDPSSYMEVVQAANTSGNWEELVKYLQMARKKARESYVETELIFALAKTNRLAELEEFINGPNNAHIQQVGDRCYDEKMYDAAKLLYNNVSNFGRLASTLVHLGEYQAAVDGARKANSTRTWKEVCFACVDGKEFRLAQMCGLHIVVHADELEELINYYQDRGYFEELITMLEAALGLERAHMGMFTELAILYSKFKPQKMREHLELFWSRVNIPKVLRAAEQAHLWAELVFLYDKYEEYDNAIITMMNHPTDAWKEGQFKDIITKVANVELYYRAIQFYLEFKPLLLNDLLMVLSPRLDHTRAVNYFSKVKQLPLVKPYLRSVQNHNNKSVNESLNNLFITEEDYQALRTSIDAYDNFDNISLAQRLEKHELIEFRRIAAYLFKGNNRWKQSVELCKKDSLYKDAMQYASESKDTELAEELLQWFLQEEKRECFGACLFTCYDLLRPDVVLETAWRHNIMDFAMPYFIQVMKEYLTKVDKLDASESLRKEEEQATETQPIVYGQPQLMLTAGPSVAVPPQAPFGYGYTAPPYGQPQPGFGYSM

For this assay, the target named is T1, clathrin light chain A fused with mfGFP (CLCA-mfGFP) (human) (UniProt P09496).
T1 sequence: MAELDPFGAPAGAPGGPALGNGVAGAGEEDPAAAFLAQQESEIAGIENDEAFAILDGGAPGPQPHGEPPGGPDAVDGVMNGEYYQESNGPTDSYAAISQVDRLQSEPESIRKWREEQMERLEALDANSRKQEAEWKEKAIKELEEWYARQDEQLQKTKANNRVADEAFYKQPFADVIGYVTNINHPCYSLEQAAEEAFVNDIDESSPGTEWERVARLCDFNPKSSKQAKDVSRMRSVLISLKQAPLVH
Put plainly: pull-down; HiTrap streptavidin column by the SBP tag of CLCA-mfGFP; triskelions extracted from HeLa microsomes; buffer A (0.5 M NaCl, 20 mM MOPS pH 7.4, 0.3 M sucrose, 2 mM DTT); eluted with 2.5 mM d-desthiobiotin; SDS-PAGE, CBB stain.

These are yes or no findings as the source states them, for the method shown. In cells and extracts the contact can be indirect. Some binding calls cover weakened binding; strength is not graded here. Where a sequence is shown, tags or fusion partners need not be part of it.

As for “clathrin heavy chain (CHC) (from UniProt Q00610 1-1675)”, the binding entry is listed as “binds”.
